Test results as given in paper PMC6239860.
Results are given in words; binding and its absence hold for the method and conditions named.

Molecular target: Recombinant human cholesteryl ester transfer protein (CETP) mutant N341Q (human) (UniProt P11597)
Assay: optimized negative-staining EM (OpNS); purified CETP alone, incubated 1 h at 37 °C with inhibitor buffer or with about 10 uM Torcetrapib, Dalcetrapib or Anacetrapib; single particles imaged; both purified

B1: Recombinant human cholesteryl ester transfer protein (CETP) mutant N341Q (protein, UniProt P11597 18-493)
chain: CSKGTSHEAGIVCRITKPALLVLNHETAKVIQTAFQRASYPDITGEKAMMLLGQVKYGLHNIQISHLSIASSQVELVEAKSIDVSIQNVSVVFKGTLKYGYTTAWWLGIDQSIDFEIDSAIDLQINTQLTCDSGRVRTDAPDCYLSFHKLLLHLQGEREPGWIKQLFTNFISFTLKLVLKGQICKEINVISNIMADFVQTRAASILSDGDIGVDISLTGDPVITASYLESHHKGHFIYKNVSEDLPLPTFSPTLLGDSRMLYFWFSERVFHSLAKVAFQDGRLMLSLMGDEFKAVLETWGFNTNQEIFQEVVGGFPSQAQVTVHCLKMPKISCQNKGVVVQSSVMVKFLFPRPDQQHSVAYTFEEDIVTTVQASYSKKKLFLSLLDFQITPKTVSNLTESSSESVQSFLQSMITAVGIPEVMSRLEVVFTALMNSKGVSLFDIINPEIITRDGFLLLQMDFGFPEHLLVDFLQSLS
binding: no binding
